This is one part of the list.
Columns and labels:
Test in all cases: log2 fold change, soluble protein after heating vs DMSO (PISA); higher = thermal stabilisation; K562 cells, 10 uM, 30 min; active = over 0.2 and 3.5 SD of the protein, either way, in both replicates (recomputed)
bafetinib = compound: Cc1ccc(NC(=O)c2ccc(CN3CC[C@H](N(C)C)C3)c(C(F)(F)F)c2)cc1Nc1nccc(-c2cncnc2)n1 [bafetinib]
In short: (§1)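 Values are thermal stability changes relative to control samples and are taken from duplicates. They are stated as log2 fold changes. Before quantification by TMTpro 16plex LC-MS/MS with equalised channel sums, K562 cells at 2×10^6 cells/mL were treated with 10 μM compound for 30 min, heated in aliquots for 3 min across 48°C-58°C, pooled, extracted in PBS with 0.5% NP-40 at 4°C, and centrifuged at 21,000xg for 90 min to give the soluble supernatant.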

By UniProt entry, the sequences of proteins in these tests, tags left out. Where a name states a change or a piece, a line headed by the entry shows the natural chain unless it says otherwise.
UniProt Q8IY47: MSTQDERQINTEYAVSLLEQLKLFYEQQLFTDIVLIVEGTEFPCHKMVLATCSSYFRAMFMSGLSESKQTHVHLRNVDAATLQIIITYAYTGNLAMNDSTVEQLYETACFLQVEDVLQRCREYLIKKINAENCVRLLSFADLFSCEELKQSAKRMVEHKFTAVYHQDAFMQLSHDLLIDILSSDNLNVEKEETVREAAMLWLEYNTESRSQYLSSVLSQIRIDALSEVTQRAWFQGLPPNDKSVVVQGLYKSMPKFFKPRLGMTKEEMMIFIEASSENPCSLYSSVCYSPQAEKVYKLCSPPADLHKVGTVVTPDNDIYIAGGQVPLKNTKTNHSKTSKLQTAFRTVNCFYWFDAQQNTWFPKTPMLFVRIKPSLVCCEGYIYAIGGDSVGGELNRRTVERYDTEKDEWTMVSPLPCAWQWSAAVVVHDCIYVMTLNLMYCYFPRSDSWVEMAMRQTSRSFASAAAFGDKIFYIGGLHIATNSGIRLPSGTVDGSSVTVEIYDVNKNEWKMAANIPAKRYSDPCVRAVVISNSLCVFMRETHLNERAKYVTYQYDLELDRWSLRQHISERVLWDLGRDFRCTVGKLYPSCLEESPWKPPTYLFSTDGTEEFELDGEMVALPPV
UniProt Q7L273: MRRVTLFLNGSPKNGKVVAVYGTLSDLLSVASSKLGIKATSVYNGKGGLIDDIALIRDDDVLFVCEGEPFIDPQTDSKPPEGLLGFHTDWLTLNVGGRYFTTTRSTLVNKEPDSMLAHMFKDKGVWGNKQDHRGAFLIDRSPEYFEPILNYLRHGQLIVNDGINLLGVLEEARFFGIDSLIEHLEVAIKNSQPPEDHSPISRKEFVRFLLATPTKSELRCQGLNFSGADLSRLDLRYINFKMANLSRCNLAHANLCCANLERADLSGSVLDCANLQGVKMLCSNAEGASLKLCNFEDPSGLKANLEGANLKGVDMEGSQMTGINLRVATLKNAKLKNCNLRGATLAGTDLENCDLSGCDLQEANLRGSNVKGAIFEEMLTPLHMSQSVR
UniProt O00505, whole entry, looked up: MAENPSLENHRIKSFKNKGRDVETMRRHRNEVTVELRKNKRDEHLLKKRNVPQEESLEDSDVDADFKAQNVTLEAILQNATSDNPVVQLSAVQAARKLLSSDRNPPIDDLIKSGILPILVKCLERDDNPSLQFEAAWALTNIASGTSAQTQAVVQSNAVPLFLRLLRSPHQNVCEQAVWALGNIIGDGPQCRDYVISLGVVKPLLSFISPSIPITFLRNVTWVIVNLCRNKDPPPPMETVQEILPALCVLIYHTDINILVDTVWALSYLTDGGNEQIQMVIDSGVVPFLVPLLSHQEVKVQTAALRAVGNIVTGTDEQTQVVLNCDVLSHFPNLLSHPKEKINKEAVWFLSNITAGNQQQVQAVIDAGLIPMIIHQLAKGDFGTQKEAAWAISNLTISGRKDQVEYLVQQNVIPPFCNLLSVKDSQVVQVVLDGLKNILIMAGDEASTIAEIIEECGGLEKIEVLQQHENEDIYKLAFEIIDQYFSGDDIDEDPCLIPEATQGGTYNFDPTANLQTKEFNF
UniProt Q14681: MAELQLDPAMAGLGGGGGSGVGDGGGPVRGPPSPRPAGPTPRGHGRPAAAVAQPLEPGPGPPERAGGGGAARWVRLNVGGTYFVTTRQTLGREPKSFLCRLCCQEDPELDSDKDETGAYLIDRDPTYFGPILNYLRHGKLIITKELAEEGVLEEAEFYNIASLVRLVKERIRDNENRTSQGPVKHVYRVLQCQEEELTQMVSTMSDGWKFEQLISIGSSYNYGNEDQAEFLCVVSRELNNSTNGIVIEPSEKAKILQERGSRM
UniProt Q14667: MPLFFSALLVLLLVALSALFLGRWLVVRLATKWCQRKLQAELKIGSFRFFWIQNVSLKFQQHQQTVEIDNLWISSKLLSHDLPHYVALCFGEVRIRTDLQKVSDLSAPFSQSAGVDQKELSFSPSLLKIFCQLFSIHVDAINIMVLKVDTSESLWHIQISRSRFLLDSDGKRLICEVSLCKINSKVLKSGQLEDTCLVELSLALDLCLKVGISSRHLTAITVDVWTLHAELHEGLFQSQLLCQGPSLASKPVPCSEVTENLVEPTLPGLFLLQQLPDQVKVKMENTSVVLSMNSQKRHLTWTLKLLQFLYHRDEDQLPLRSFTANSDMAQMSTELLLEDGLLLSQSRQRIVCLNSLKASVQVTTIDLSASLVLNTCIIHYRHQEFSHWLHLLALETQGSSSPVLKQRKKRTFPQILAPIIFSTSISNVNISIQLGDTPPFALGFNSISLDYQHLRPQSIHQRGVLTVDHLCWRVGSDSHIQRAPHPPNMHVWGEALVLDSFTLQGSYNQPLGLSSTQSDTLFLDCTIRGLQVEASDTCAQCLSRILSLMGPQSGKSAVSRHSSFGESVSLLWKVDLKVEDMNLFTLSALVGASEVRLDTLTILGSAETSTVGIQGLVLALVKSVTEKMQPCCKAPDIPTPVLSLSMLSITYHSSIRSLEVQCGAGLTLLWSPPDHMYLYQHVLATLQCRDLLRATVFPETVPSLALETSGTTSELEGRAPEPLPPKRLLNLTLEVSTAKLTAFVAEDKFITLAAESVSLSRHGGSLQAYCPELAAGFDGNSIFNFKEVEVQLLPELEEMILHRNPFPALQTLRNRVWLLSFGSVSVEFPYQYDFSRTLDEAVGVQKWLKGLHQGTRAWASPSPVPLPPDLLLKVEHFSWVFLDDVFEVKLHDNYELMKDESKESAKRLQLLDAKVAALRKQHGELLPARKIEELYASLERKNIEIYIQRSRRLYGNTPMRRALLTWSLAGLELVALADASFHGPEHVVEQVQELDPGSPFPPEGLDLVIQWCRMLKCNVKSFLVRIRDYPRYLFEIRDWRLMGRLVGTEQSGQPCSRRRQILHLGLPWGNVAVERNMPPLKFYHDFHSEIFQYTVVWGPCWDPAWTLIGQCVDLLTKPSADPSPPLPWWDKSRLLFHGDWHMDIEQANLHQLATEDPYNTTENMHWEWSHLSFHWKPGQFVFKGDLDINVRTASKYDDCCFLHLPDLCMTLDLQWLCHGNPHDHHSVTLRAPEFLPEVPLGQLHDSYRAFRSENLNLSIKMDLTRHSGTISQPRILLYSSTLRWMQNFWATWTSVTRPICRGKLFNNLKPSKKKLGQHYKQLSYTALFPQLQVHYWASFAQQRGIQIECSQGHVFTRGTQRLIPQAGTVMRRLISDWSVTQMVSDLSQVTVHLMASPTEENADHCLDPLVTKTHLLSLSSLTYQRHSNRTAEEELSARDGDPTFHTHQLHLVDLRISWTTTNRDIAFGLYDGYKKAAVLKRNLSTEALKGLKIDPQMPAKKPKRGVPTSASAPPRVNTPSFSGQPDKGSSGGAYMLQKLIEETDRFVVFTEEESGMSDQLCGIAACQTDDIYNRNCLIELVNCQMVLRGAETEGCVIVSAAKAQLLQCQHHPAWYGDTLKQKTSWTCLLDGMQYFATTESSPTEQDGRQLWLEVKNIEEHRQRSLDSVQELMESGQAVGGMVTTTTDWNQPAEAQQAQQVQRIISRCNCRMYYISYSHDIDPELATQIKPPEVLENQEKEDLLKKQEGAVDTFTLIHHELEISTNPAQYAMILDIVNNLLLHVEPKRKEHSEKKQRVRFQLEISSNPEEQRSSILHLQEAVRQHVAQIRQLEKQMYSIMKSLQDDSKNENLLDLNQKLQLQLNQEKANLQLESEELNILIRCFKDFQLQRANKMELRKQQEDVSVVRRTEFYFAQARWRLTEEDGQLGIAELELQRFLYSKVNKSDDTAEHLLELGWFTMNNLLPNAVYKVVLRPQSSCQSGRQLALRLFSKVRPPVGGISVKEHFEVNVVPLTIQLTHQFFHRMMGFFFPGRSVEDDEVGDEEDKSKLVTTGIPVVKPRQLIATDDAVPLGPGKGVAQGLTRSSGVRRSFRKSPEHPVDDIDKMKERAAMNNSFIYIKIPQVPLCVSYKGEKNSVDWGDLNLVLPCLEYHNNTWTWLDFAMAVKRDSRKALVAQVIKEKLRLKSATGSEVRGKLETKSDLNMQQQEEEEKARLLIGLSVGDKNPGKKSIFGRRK
UniProt Q02241: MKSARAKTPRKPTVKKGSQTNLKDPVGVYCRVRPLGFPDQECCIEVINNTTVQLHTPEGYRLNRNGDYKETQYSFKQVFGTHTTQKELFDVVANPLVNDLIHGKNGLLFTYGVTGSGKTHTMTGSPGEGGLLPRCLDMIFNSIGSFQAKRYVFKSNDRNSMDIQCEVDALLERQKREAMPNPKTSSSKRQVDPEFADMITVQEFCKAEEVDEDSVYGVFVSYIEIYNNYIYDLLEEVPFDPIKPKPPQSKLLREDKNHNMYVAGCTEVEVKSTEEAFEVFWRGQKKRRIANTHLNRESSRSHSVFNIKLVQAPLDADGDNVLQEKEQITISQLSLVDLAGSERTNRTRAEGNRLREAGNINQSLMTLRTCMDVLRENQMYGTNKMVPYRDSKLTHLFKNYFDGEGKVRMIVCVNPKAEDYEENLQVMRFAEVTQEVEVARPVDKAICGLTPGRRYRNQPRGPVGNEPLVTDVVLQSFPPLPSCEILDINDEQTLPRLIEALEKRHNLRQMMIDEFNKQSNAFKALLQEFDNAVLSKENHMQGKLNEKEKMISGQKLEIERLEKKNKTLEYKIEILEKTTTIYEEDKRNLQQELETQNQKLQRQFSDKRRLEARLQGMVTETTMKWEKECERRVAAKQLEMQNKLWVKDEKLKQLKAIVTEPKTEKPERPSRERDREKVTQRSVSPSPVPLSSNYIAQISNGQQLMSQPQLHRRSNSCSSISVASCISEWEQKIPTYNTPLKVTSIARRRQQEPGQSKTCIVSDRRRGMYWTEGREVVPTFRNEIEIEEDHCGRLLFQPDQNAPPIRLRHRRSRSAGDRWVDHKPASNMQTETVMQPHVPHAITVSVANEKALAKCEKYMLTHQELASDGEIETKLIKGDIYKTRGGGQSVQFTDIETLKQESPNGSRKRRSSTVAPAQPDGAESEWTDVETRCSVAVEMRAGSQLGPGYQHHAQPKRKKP
UniProt O00629, whole entry, looked up: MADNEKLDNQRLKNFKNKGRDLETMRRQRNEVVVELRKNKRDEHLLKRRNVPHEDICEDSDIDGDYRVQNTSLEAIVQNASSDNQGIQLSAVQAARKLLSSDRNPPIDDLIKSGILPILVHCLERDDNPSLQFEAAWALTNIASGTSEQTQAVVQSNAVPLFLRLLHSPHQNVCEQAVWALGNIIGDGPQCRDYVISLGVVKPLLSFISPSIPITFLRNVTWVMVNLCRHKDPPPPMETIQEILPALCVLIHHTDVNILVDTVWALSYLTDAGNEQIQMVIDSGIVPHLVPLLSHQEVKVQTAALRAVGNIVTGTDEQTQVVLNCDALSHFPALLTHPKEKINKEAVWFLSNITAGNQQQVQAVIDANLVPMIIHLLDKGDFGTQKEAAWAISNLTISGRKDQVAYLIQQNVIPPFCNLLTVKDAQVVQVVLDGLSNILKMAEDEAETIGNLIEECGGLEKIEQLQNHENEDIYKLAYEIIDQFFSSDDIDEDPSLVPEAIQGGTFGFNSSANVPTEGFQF
UniProt Q96SI1: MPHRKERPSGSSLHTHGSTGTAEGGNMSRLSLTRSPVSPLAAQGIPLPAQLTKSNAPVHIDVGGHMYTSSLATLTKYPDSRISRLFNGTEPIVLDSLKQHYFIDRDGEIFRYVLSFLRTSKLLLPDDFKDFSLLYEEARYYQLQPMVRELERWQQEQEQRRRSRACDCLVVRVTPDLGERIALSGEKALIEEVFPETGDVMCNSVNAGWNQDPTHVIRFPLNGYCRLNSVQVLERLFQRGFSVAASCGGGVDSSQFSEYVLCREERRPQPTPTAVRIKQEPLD
UniProt O00139: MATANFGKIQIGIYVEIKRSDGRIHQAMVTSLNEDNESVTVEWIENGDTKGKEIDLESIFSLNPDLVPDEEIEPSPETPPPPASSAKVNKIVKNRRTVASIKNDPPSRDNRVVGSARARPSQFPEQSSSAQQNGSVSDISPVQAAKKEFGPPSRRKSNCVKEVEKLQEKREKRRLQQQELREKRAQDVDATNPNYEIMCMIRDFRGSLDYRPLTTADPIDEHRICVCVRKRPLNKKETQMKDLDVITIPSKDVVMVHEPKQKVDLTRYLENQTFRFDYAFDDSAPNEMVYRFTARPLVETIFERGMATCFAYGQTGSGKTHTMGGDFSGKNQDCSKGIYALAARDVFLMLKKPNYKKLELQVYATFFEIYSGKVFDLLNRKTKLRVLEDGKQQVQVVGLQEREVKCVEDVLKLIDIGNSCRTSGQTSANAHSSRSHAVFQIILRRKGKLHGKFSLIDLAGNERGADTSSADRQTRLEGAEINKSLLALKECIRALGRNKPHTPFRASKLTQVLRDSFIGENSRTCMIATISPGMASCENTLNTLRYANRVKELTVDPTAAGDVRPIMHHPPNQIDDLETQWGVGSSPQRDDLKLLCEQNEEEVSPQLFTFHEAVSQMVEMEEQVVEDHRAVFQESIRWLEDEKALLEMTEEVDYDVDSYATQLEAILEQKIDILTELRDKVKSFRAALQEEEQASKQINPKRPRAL

[1] = compound: Cc1cccc(CC(=O)N2CCc3c2ccc(-c2cn(C)c4ncnc(N)c24)c3F)n1
In short: as §1

nilotinib = compound: Cc1cn(-c2cc(NC(=O)c3ccc(C)c(Nc4nccc(-c5cccnc5)n4)c3)cc(C(F)(F)F)c2)cn1 [nilotinib]
In short: as §1

[2] = compound: Cc1nc(Nc2n[nH]c3c2CN(C(=O)N[C@H](CN(C)C)c2ccccc2)C3(C)C)c2sccc2n1
In short: as §1

dasatinib = compound: Cc1nc(Nc2ncc(C(=O)Nc3c(C)cccc3Cl)s2)cc(N2CCN(CCO)CC2)n1 [dasatinib]
In short: as §1

[3] = compound: Cc1ncc(-c2ccnc(Nc3ccc(S(C)(=O)=O)cc3)n2)n1C(C)C
In short: as §1

[4] = compound: Cn1cc(-c2ccc3c(c2)CCN3C(=O)Cc2cccc(C(F)(F)F)c2)c2c(N)ncnc21
In short: as §1

[5] = compound: Cn1cc(-c2ccc3nnc(C(F)(F)c4ccc5ncccc5c4)n3n2)cn1
In short: as §1

tipifarnib = compound: Cn1cncc1[C@@](N)(c1ccc(Cl)cc1)c1ccc2c(c1)c(-c1cccc(Cl)c1)cc(=O)n2C [tipifarnib]
In short: as §1

mubritinib = compound: FC(F)(F)c1ccc(/C=C/c2nc(COc3ccc(CCCCn4ccnn4)cc3)co2)cc1 [mubritinib]
In short: as §1

Target | log2 fold change (bafetinib) | log2 fold change [1] | log2 fold change (nilotinib) | log2 fold change [2] | log2 fold change (dasatinib) | log2 fold change [3] | log2 fold change [4] | log2 fold change [5] | log2 fold change (tipifarnib) | log2 fold change (mubritinib)
KCTD3 (UniProt Q9Y597) | inactive: -0.054 | inactive: -0.043 | inactive: -0.036 | inactive: 0.062 | inactive: 0.14 | inactive: -0.033 | inactive: -0.013 | inactive: 0.025 | inactive: -0.001 | inactive: 0.003
KNOP1 (UniProt Q1ED39) | inactive: -0.145 | inactive: 0.091 | inactive: 0.138 | inactive: -0.07 | inactive: 0.234 | inactive: 0.047 | inactive: -0.509 | inactive: -0.009 | inactive: 0.047 | inactive: 0.146
KBTBD2 (UniProt Q8IY47) | inactive: -0.003 | inactive: -0.013 | inactive: -0.058 | inactive: 0.009 | inactive: -0.024 | inactive: -0.057 | inactive: 0.074 | inactive: -0.004 | inactive: -0.021 | inactive: 0.082
KDM8 isoform 3 (UniProt Q8N371) | inactive: -0.016 | inactive: 0.012 | inactive: -0.007 | inactive: -0.023 | inactive: -0.035 | inactive: -0.028 | inactive: 0.035 | inactive: -0.005 | inactive: -0.015 | inactive: 0.029
KAT8 isoform 2 (UniProt Q9H7Z6) | inactive: -0.109 | inactive: -0.087 | inactive: -0.053 | inactive: -0.033 | inactive: 0.115 | inactive: -0.007 | inactive: 0.034 | inactive: -0.046 | inactive: -0.028 | inactive: 0.101
KDM5D isoform 3 (UniProt Q9BY66) | inactive: 0.208 | inactive: -0.049 | inactive: 0.089 | inactive: -0.054 | inactive: -0.289 | inactive: -0.047 | inactive: -0.026 | inactive: 0.058 | inactive: -0.044 | inactive: 0.203
KCTD9 (UniProt Q7L273) | inactive: -0.035 | inactive: -0.04 | inactive: 0.091 | inactive: -0.04 | inactive: -0.032 | inactive: -0.009 | inactive: 0.05 | inactive: 0.023 | inactive: -0.013 | inactive: 0.048
KDM5C (UniProt P41229) | inactive: -0.027 | inactive: 0.058 | inactive: -0.118 | inactive: 0.038 | inactive: -0.119 | inactive: -0.008 | inactive: -0.079 | inactive: 0.051 | inactive: -0.044 | inactive: 0.134
KIAA0319L (UniProt Q8IZA0) | inactive: -0.052 | inactive: -0.049 | inactive: 0.009 | inactive: 0.008 | inactive: 0.012 | inactive: -0.003 | inactive: 0.012 | inactive: 0.032 | inactive: 0.029 | inactive: 0.02
KNG1 (UniProt P01042) | inactive: -0.149 | inactive: -0.161 | inactive: 0.129 | inactive: 0.166 | inactive: 0.015 | inactive: 0.053 | inactive: 0.216 | inactive: -0.202 | inactive: 0.067 | inactive: -0.218
KPNA3 (UniProt O00505) | inactive: -0.094 | inactive: 0.093 | inactive: -0.044 | inactive: -0.097 | inactive: -0.189 | inactive: -0.113 | inactive: 0.038 | inactive: -0.016 | inactive: -0.011 | inactive: 0.109
KBTBD8 (UniProt Q8NFY9) | inactive: -0.143 | inactive: 0.037 | inactive: -0.048 | inactive: 0.011 | inactive: -0.026 | inactive: -0.048 | inactive: 0.068 | inactive: -0.038 | inactive: -0.04 | inactive: 0.027
KCTD2 (UniProt Q14681) | inactive: -0.23 | active: -0.845 | inactive: -0.144 | inactive: 0.012 | inactive: 0.146 | inactive: -0.076 | inactive: -0.102 | inactive: -0.015 | inactive: 0.308 | inactive: 0.113
KLHL18 (UniProt O94889) | inactive: 0.027 | inactive: -0.252 | inactive: 0.005 | inactive: -0.021 | inactive: -0.187 | inactive: 0.025 | inactive: 0.061 | inactive: -0.027 | inactive: 0.044 | inactive: -0.017
KIAA0100 (UniProt Q14667) | inactive: -0.051 | inactive: 0.059 | inactive: 0.025 | inactive: 0.063 | inactive: 0.039 | inactive: -0.066 | inactive: 0.043 | inactive: 0.114 | inactive: -0.066 | inactive: 0.094
KIF23 (UniProt Q02241) | inactive: -0.077 | inactive: 0.013 | inactive: 0.034 | inactive: -0.298 | inactive: -0.058 | inactive: 0.033 | inactive: 0.044 | inactive: -0.089 | inactive: 0.177 | inactive: 0.032
KDM2A (UniProt Q9Y2K7) | inactive: -0.044 | inactive: 0.056 | inactive: -0.162 | inactive: 0.059 | inactive: -0.05 | inactive: -0.075 | inactive: -0.052 | inactive: -0.084 | inactive: 0.101 | inactive: 0.045
KDM1A isoform 2 (UniProt O60341) | inactive: 0.007 | inactive: 0.014 | inactive: -0.078 | inactive: -0.059 | inactive: -0.07 | inactive: -0.001 | inactive: -0.002 | inactive: -0.011 | inactive: -0.108 | inactive: 0.095
KHDC4 (UniProt Q7Z7F0) | inactive: -0.051 | inactive: 0.057 | inactive: 0.063 | inactive: -0.054 | inactive: -0.009 | inactive: -0.053 | inactive: -0.006 | inactive: -0.053 | inactive: -0.133 | inactive: 0.004
KRAS isoform 2 (UniProt P01116) | inactive: 0.008 | inactive: -0.115 | inactive: -0.123 | inactive: 0.074 | inactive: -0.018 | inactive: -0.041 | inactive: 0.064 | inactive: -0.08 | inactive: 0.087 | inactive: 0.041
KPNA4 (UniProt O00629) | inactive: -0.111 | inactive: 0.021 | inactive: 0.04 | inactive: -0.155 | inactive: -0.017 | inactive: -0.033 | inactive: 0.021 | inactive: 0.032 | inactive: -0.004 | inactive: 0.093
KLF3 (UniProt P57682) | inactive: -0.036 | inactive: 0.048 | inactive: -0.039 | inactive: 0.013 | inactive: 0.03 | inactive: -0.034 | inactive: 0.078 | inactive: 0.047 | inactive: 0.035 | inactive: 0.035
KCTD15 (UniProt Q96SI1) | inactive: -0.037 | inactive: -0.055 | inactive: 0.012 | inactive: -0.043 | inactive: 0.039 | inactive: -0.023 | inactive: -0.002 | inactive: 0.091 | inactive: -0.022 | inactive: 0.054
KIF2A isoform 4 (UniProt O00139) | inactive: 0.049 | inactive: 0.017 | inactive: -0.08 | inactive: 0.016 | inactive: -0.034 | inactive: -0.008 | inactive: -0.059 | inactive: -0.085 | inactive: 0.013 | inactive: -0.133
KLHDC4 (UniProt Q8TBB5) | inactive: 0.012 | inactive: -0.018 | inactive: 0 | inactive: -0.067 | inactive: 0.107 | inactive: 0.156 | inactive: -0.175 | inactive: -0.23 | inactive: 0.106 | inactive: -0.333
KLC4 isoform 3 (UniProt Q9NSK0) | inactive: 0.019 | inactive: 0.074 | inactive: 0.025 | inactive: -0.097 | inactive: -0.043 | inactive: 0 | inactive: 0.042 | inactive: -0.015 | inactive: -0.024 | inactive: 0.043
KIDINS220 (UniProt Q9ULH0) | inactive: 0.007 | inactive: -0.023 | inactive: 0.017 | inactive: -0.026 | inactive: 0.005 | inactive: 0.007 | inactive: 0.016 | inactive: -0.048 | inactive: 0.052 | inactive: 0.012
KNTC1 (UniProt P50748) | inactive: -0.013 | inactive: 0.043 | inactive: -0.064 | inactive: -0.026 | inactive: -0.047 | inactive: 0.042 | inactive: -0.073 | inactive: 0 | inactive: -0.108 | inactive: 0.004
JAK3 (UniProt P52333) | inactive: -0.013 | inactive: -0.056 | inactive: -0.01 | inactive: 0.082 | inactive: -0.028 | inactive: -0.02 | inactive: -0.019 | inactive: 0.044 | inactive: 0.052 | inactive: -0.061

Record cards, from the list above. Order of values: log2 fold change (bafetinib)	log2 fold change [1]	log2 fold change (nilotinib)	log2 fold change [2]	log2 fold change (dasatinib)	log2 fold change [3]	log2 fold change [4]	log2 fold change [5]	log2 fold change (tipifarnib)	log2 fold change (mubritinib)
KDM1A isoform 2 (UniProt O60341) in the list: inactive: 0.007	inactive: 0.014	inactive: -0.078	inactive: -0.059	inactive: -0.07	inactive: -0.001	inactive: -0.002	inactive: -0.011	inactive: -0.108	inactive: 0.095
KCTD9 (UniProt Q7L273) in the list: inactive: -0.035	inactive: -0.04	inactive: 0.091	inactive: -0.04	inactive: -0.032	inactive: -0.009	inactive: 0.05	inactive: 0.023	inactive: -0.013	inactive: 0.048

— the supplement of paper PMC10849652
